The text below walks through data of PMC11566926.

Protein sequences, listed by entry. Tags and fused reporters are not part of them.
UniProt Q04207: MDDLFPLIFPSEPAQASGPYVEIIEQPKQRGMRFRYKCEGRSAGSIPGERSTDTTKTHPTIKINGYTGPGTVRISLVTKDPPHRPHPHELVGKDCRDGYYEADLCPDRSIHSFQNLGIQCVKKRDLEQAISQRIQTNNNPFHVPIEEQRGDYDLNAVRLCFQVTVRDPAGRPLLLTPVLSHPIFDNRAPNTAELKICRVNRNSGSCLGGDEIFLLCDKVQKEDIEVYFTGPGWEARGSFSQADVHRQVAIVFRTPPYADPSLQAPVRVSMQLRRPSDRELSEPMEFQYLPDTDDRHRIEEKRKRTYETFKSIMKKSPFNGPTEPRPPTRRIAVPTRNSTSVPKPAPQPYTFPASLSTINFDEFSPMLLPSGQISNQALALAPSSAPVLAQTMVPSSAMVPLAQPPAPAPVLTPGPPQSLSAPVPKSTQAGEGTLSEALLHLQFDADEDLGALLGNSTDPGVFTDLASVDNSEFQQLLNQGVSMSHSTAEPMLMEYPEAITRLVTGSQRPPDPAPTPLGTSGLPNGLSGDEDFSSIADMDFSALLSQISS

The assay deals with T1, Sirtuin1 (SIRT1) (mouse (endogenous in primary peritoneal macrophages)) (UniProt Q923E4).
T1 sequence: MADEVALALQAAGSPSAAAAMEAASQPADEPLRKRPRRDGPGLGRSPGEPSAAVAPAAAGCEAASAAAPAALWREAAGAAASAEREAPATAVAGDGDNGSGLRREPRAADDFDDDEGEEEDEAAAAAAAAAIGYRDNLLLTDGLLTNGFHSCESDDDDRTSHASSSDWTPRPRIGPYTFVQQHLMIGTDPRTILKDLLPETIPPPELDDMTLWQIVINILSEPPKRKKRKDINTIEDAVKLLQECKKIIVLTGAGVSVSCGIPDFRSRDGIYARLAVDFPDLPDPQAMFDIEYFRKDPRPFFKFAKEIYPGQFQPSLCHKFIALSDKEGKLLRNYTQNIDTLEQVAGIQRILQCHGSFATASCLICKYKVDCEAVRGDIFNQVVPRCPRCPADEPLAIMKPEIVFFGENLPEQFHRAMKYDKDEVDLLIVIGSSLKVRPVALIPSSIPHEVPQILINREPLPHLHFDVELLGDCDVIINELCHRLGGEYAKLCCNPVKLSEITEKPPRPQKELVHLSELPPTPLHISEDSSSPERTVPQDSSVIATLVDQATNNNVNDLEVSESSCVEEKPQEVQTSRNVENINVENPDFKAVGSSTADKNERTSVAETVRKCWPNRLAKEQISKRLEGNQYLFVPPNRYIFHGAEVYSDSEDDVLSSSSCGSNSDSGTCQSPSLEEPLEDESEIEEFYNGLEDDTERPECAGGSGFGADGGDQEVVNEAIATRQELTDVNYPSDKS
Put plainly: co-IP; cell lysate (lysis buffer with PMSF) pre-cleared with Dynabeads Protein G, SIRT1 polyclonal antibody added overnight at 4 °C, beads washed 3 times with lysis buffer, SIRT1-binding proteins analysed by western blotting.

These are yes or no findings as the source states them, for the method shown. In cells and extracts the contact can be indirect. Some binding calls cover weakened binding; strength is not graded here.

NF-κB P65 (from UniProt Q04207 1-549): the binding entry is “binds”.
